Among the data in patent US4748154A (Takeda Chemical Industries, Ltd., priority 1985, dated 1988) are step yield values, retold here.

A short description of the data set: general procedure: solution-phase peptide synthesis; DCC/HOBt; DCC/HONB (ONB active esters). The settings on record: coupling step.
Turning to “Boc--Asn--Cys(MBzl)--D--Pro--D--Lys(Z)--oBzl”, the step yield was found to be 69.7%.
“Boc--Asn--Cys(MBzl)--Gly--D--Lys(Z)--OBzl” returned a step yield of 99.2%.
“Boc--Asn--Cys(MBzl)--Sar--D--Lys(Z)--OBzl” registered a step yield of 95.9%.
“pGlu--Asn--Cys(MBzl)--Ala--D--Lys(Z)--OBzl”: the step yield was determined as 85.7%.
With “pGlu--Asn--Cys(MBzl)--D--Pro--D--Lys(Z)--OBzl”, the step yield was 64.6%.
For the substance “pGlu--Asn--Cys(MBzl)--Gly-D-Lys(Z)--OBzl”, the step yield came to 81.7%.
As to “pGlu--Asn--Cys(MBzl)--Pro--D--Lys(Z)--Gly--NH--Bu^t”, the step yield is reported as 38.4%.
“pGlu--Asn--Cys(MBzl)--Pro--D--Lys(Z)--Gly--NHCH3” had a step yield of 62.2%.
“pGlu--Asn--Cys(MBzl)--Pro--D--Lys(Z)--Gly--OBzl” displayed a step yield of 66.2%.
“pGlu--Asn--Cys(MBzl)--Pro--D--Lys(Z)--Leu--OBzl” gave a step yield of 68.1%.
On to “pGlu--Asn--Cys(MBzl)--Pro--D--Lys(Z)--NH--Et”, for which the step yield came out at 56.7%.
“pGlu--Asn--Cys(MBzl)--Pro--D--Lys(Z)--NH--ada” showed a step yield of 75.6%.
With “pGlu--Asn--Cys(MBzl)--Pro--D--Lys(Z)--NHBu^t”, the step yield is 73.2%.
With “pGlu--Asn--Cys(MBzl)--Pro--D--Lys(Z)--OBzl”, the step yield worked out at 80.8%.
Substance “pGlu--Asn--Cys(MBzl)--Pro--D--Lys(Z)--Phe--OBzl” came in with a step yield of 56.6%.
Substance pGlu--Asn--Cys(MBzl)--Pro--OH had a step yield of 93.0%.
The substance “pGlu--Asn--Cys(MBzl)--Sar--D--Lys(Z)--OBzl” showed a step yield of 81.5%.
Next, “pGlu--Asn-Cys(MBzl)--Pro--D--Lys(Z)--NH2”: 66.2%.
